According to article PMC10598209 (Nature Communications, 2023):

Assays:
[1] = molecular target: T1, RSM, RECQ4(348-388) (Homo sapiens) (UniProt O94761); assay: EMSA; settings: EMSA: 40 mM Tris-HCl pH 7.5, 25 mM KCl, 5 mM MgCl2, 2 mM DTT, 2% glycerol, 0.1 mg/mL BSA, 37 C, recombinant protein
T1 sequence: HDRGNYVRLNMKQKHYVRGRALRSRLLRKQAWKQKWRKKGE

[2] = molecular target: T1, RSM, RECQ4(348-388) (Homo sapiens); assay: fluorescence anisotropy; settings: high ionic strength (500 mM NaCl), FA: 25 mM KPO4 pH 6.5, 70 mM KCl (or 500 mM NaCl), 25 C, recombinant protein
[3] = molecular target: T2, RSM 5E mutant R375E,K376E,K380E,K382E,R384E (Homo sapiens) (UniProt O94761); assay: NMR; settings: residual binding, no droplets, NMR dsDNA: 50 mM NaPO4 pH 6.0, 150 mM NaCl, 298 K, NMR G4: 25 mM KPO4 pH 6.5, 70 mM KCl, recombinant protein, residues 348-388, folded or branched DNA
T2 sequence (looked up): T1 sequence with R28E, K29E, K33E, K35E, R37E

[4] = molecular target: T3, RSM W379A/W383A (Homo sapiens) (UniProt O94761); assay: NMR/droplet formation; settings: forms droplets with both G4s, NMR dsDNA: 50 mM NaPO4 pH 6.0, 150 mM NaCl, 298 K, NMR G4: 25 mM KPO4 pH 6.5, 70 mM KCl, recombinant protein
T3 sequence (looked up): T1 sequence with W32A, W36A

[5] = molecular target: T1, RSM, RECQ4(348-388) (Homo sapiens); assay: ITC; settings: 70 mM KCl, pH 6.5, 30 C, Kd agrees with NMR, value not in text, ITC: same low-salt buffer, recombinant protein, label: 5' FITC on strand 1 (FA)

AGCTACCATGCCTGCACGAATTAAGCAATTCGTAATCATGGTCATAGCT (double strand) [ds49]
binding result ([1]; increasing NaCl, less salt resistant than CEB1, label: 5' FITC on strand 1): binds more weakly

GTTAACCCTAACCCTAAGAT [ss20]
binding result ([1]; mixed pool with CEB1 G4, label: 5' FITC, single-stranded DNA): binds more weakly

CAGCGCTCGG [ss10]
binding result ([2]; not reliably detected, label: 5' FITC (FA), single-stranded DNA): no binding

AGGGGGGAGGGAGGGTGG [CEB1 parallel G4]
binding result ([2]; label: 5' FITC or Cy3 (FA, EMSA), folded or branched DNA): binds more weakly

TTGGGTGGGTGGGTGGGT [T95-2T parallel G4]
binding result [3]: binds more weakly | binding result ([4]; residues 348-388, folded or branched DNA): binds

TTGGGTTAGGGTTAGGGTTAGGGA [HT hybrid G4]
binding result ([4]; residues 348-388, label: 5' FITC (FA), folded or branched DNA): binds | binding result ([2]; label: 5' FITC (FA), folded or branched DNA): binds more weakly

CAGCGCTCGG (double strand) [ds10]
binding result [5]: binds | binding result ([2]; not reliably detected, label: 5' FITC on strand 1 (FA)): no binding

Substitutions are numbered along the chain they refer to. For some of these results: Negatives hold for the conditions tested. Protein sequences can lack the tags named with them. For some of these results: A weaker result is weaker than the reference pair of the same experiment. For some of these results: The exact form of at least one protein or probe is not confirmed. For some of these results: At least one verdict was read from the data and is not stated in words by the source.
